The subject of the assay is P388 leukemia ip, CD2F1 mice, survival T/C. Kind of assay: NCI In Vivo Anticancer Drug Screen. Data for tumor model P388 Leukemia (intraperitoneal) in CD2F1 (CDF1) mice. The conditions noted are these: T/C endpoint: median survival time, higher T/C = longer survival.
[1] abbreviates: dose: 50.0 mg/kg/injection, schedule: Q01DX009 (ip), vehicle: saline with Tween-80.
[2] abbreviates: dose: 100.0 mg/kg/injection, schedule: Q01DX009 (ip), vehicle: saline with Tween-80.
[3] abbreviates: dose: 100.0 mg/kg/injection, schedule: Q01DX005 (ip), vehicle: Klucel (hydroxypropylcellulose) (HPC).
The mark [4] stands for this setting: dose: 200.0 mg/kg/injection, schedule: Q01DX005 (ip), vehicle: Klucel (hydroxypropylcellulose) (HPC).
The mark [5] stands for this setting: dose: 50.0 mg/kg/injection, schedule: Q04DX003 (ip), vehicle: saline with Tween-80.
Where [6] appears, read: dose: 100.0 mg/kg/injection, schedule: Q04DX003 (ip), vehicle: saline with Tween-80.
The mark [7] stands for this setting: dose: 200.0 mg/kg/injection, schedule: Q01DX009 (ip), vehicle: saline with Tween-80.
[8] abbreviates: dose: 240.0 mg/kg/injection, schedule: Q01DX005 (ip), vehicle: saline with Tween-80.
Where [9] appears, read: dose: 100.0 mg/kg/injection, schedule: Q01DX001 (ip), vehicle: saline with Tween-80.
Where [10] appears, read: dose: 200.0 mg/kg/injection, schedule: Q01DX001 (ip), vehicle: saline with Tween-80.
Setting [11] is: dose: 400.0 mg/kg/injection, schedule: Q01DX001 (ip), vehicle: saline with Tween-80.
Setting [12] is: dose: 200.0 mg/kg/injection, schedule: Q01DX005 (ip), vehicle: saline with Tween-80.

The list shows only some results of the screen, not a fair sample: it is rich in T/C values a quarter to a half above the control, in often repeated tests (any T/C) and in doses without a T/C. Other doses and runs of a compound stand elsewhere. T/C is the treated group as % of the vehicle group. Some doses have a count of surviving animals in place of a T/C: the source files T/C as zero there, which appears to mark a toxic dose or a test without result, not a measured value. Some survivor counts are full or nearly so, which does not show that the dose was tolerated: survival well below the control is almost never listed, so the zero probably covers shortened survival too. Survivors were counted at the toxicity check, usually on the fifth day, unless a day is given; later deaths do not show. Schedule codes are those of the source, read here as Q, the interval in days (D) or hours (H), X, the number of doses. Where survival is the endpoint, this PubChem deposit counts one and a half times the control or more as active, and values a quarter to a half above the control carry no call in these data; other NCI protocols may use other cut-offs. Some doses were run more than once; the results are listed from low to high.

From PubChem BioAssay AID330 (DTP/NCI, 2004) come the findings set out here.

With `OC1(c2ccccc2)CSC2=Nc3ccccc3C3CCN1N23` (stereo not drawn), the T/C is, setting by setting: (dose: 25.0 mg/kg/injection, schedule: Q01DX009 (ip), vehicle: saline with Tween-80) 86, 105, 111, 112 % of control; under setting [1], 94, 99, 105, 107 % of control. In addition, the survivor count was 6 of 6 under setting [1] and 6 of 6 under setting [2].

Regarding `CC(O)(CO)C(C)(O)C(C)(O)c1cn(O)c(=N)c(C(=O)OCc2ccccc2)n1` (stereo not drawn), the survivor count (dose: 400.0 mg/kg/injection, schedule: Q04DX003 (ip), vehicle: saline) was 1 of 6.

Regarding `COc1cc2c3c(cccc3c1)C(=O)N(CCN1CCCC1)C2=O`, the survivor count (dose: 138.6 mg/kg/injection, schedule: Q01DX009 (ip), vehicle: saline with Tween-80) is given as 6 of 6.

`CO/C1=C\C(C)=C\C(C)C(O)C(C)C/C(C)=C/C=C/C(OC)C(C(C)C(O)C(C)C2(O)CC(O)C(C)C(C(C)C)O2)OC1=O` (stereo not drawn): the survivor count (dose: 10.0 mg/kg/injection, schedule: Q01DX005 (ip), vehicle: other) is given as 1 of 6.

For the compound `O=C1C=CC(=O)C(N(CCO)CCO)=C1`, the T/C (dose: 50.0 mg/kg/injection, schedule: Q01DX009 (ip), vehicle: suspension in saline) is 128 % of control. Also, the survivor count (dose: 200.0 mg/kg/injection, schedule: Q01DX009 (ip), vehicle: suspension in saline) is recorded as 5 of 6.

`C[N+]1=C(/C=C/Nc2cccc(N/C=C/C3=[N+](C)c4ccccc4C3(C)C)c2)C(C)(C)c2ccccc21`: the survivor count under setting [3] is given as 3 of 6 and the survivor count under setting [4] is 1 of 6.

As for `Cc1ccc(NC(=O)N(CCCl)N=O)c(C)c1`, the T/C (dose: 25.0 mg/kg/injection, schedule: Q04DX003 (ip), vehicle: saline with Tween-80) is 127 % of control. For the same compound, the survivor count is 5 of 6 under setting [5] and 0 of 6 under setting [6].

For the compound `O=C(CCSC1=NCCCN1)c1ccc(F)cc1`, the T/C (dose: 12.5 mg/kg/injection, schedule: Q01DX009 (ip), vehicle: saline with Tween-80) was 128 % of control. The survivor count reads like this: under setting [1], 2 of 6; under setting [2], 0 of 6; under setting [7], 0 of 6.

In the case of `OC(CN(Cc1nc2ccccc2[nH]1)Cc1nc2ccccc2[nH]1)CN(Cc1nc2ccccc2[nH]1)Cc1nc2ccccc2[nH]1`, under setting [8], the survivor count is reported as 5 of 6.

On to `CCCCCC[N+]1(CC)CCCCC1`, for which the survivor count is 4 of 6 (dose: 50.0 mg/kg/injection, schedule: Q01DX009 (ip), vehicle: saline); 0 of 6 (dose: 100.0 mg/kg/injection, schedule: Q01DX009 (ip), vehicle: saline); 0 of 6 (dose: 200.0 mg/kg/injection, schedule: Q01DX009 (ip), vehicle: saline).

In the case of `CCN1c2ccccc2S(=O)(=O)n2c(COc3ccccc3)nnc21`, the survivor count by setting is: under setting [9], 6 of 6; under setting [10], 6 of 6; under setting [11], 6 of 6.

Consider `Cc1cccc(C)c1Nc1nnc(-c2ccccc2)s1`, for which the survivor count was 6 of 6 (dose: 60.0 mg/kg/injection, schedule: Q01DX005 (ip), vehicle: saline with Tween-80); 6 of 6 (dose: 120.0 mg/kg/injection, schedule: Q01DX005 (ip), vehicle: saline with Tween-80); 6 of 6 under setting [8].

Regarding `NC(N)=NS(=O)(=O)c1ccc(N=c2c3ccccc3n(Cc3ccccc3)c3ccccc23)cc1`, the survivor count under setting [12] was 2 of 6.

`CCNC(=O)C(CCO)NC(=O)OCc1ccccc1` (stereo not drawn): the T/C was 127 % of control (dose: 100.0 mg/kg/injection, schedule: Q01DX009 (ip), vehicle: distilled water + Tween-80) and 138 % of control (dose: 200.0 mg/kg/injection, schedule: Q01DX009 (ip), vehicle: distilled water + Tween-80).

For `O=C(Nc1ccc2c(c1)Cc1ccccc1-2)c1cccc2ccccc12`, the survivor count (dose: 6.25 mg/kg/injection, schedule: Q01DX005 (ip), vehicle: saline with Tween-80) is 6 of 6; the survivor count (dose: 12.5 mg/kg/injection, schedule: Q01DX005 (ip), vehicle: saline with Tween-80) is 6 of 6; the survivor count (dose: 25.0 mg/kg/injection, schedule: Q01DX005 (ip), vehicle: saline with Tween-80) was 6 of 6; the survivor count (dose: 50.0 mg/kg/injection, schedule: Q01DX005 (ip), vehicle: saline with Tween-80) was 5 of 5; the survivor count (dose: 100.0 mg/kg/injection, schedule: Q01DX005 (ip), vehicle: saline with Tween-80) was 5 of 5.

As to `CCOC(=O)C(Cc1c[nH]c2ccccc12)NC(=O)[C@@]1(O)[C@H](O)[C@]2(CC)C=CCN3CC[C@@]4(c5cc([C@@]6(C(=O)OC)C[C@@H]7CN(CCc8c6[nH]c6ccccc86)C[C@](O)(CC)C7)c(OC)cc5N(C)[C@@H]14)[C@@H]32` (stereo partly drawn), the T/C is 133 % of control (dose: 16.0 mg/kg/injection, schedule: Q01DX001 (ip), vehicle: saline, evaluated on day 20) and 134 % of control (dose: 16.0 mg/kg/injection, schedule: Q01DX001 (ip), vehicle: saline, evaluated on day 30).

Consider `c1ccc([As+](c2ccccc2)(c2ccccc2)c2ccccc2)cc1`, for which the T/C reads like this: (dose: 1.25 mg/kg/injection, schedule: Q04DX003 (ip), vehicle: saline) 131 % of control; (dose: 2.5 mg/kg/injection, schedule: Q04DX003 (ip), vehicle: saline) 136 % of control; (dose: 5.0 mg/kg/injection, schedule: Q04DX003 (ip), vehicle: saline) 140 % of control.

Regarding `C1CCC2(CC1)CSC2`, the survivor count is recorded as 0 of 6 under setting [9], 0 of 6 under setting [10] and 0 of 6 under setting [11].

For `O=C(c1ccccc1)C1CCCN(CCc2ccccc2)C1` (stereo not drawn), the survivor count under setting [12] was 0 of 6.

For the compound `Clc1nc2nc[nH]c2nc1Cl`, the survivor count reads like this: under setting [5], 6 of 6; under setting [6], 6 of 6.

On to `CC1NC(=O)OC12CCCCC2` (stereo not drawn), for which the survivor count under setting [2] was 0 of 6 and the survivor count under setting [7] is recorded as 0 of 6.

With `O=C(Nc1ncc([N+](=O)[O-])s1)c1cc(Cl)cc(Cl)c1`, the survivor count is 0 of 6 under setting [3] and 1 of 6 under setting [4].

Turning to `CC(C)(O)C1CCC2(C)CC(=O)NCCN12` (stereo not drawn), the survivor count (dose: 100.0 mg/kg/injection, schedule: Q01DX001 (ip), vehicle: Klucel (hydroxypropylcellulose) (HPC)) was 1 of 6.

Take `C[n+]1cccc2c1C(=O)C(=O)c1c-2ccc[n+]1C`: the survivor count (dose: 400.0 mg/kg/injection, schedule: Q04DX002 (ip), vehicle: saline with Tween-80) is 1 of 6.

In the case of `CCP(=S)(CC)[S][Sn]([CH3])([CH3])[S]P(=S)(CC)CC`, the survivor count under setting [4] is given as 3 of 6.

With `NS(=O)(=O)c1ccc(Nc2c3ccccc3nc3cc(Cl)ccc23)cc1`, the survivor count is given as 6 of 6 (dose: 50.0 mg/kg/injection, schedule: Q01DX009 (ip), vehicle: Klucel (hydroxypropylcellulose) (HPC)) and 5 of 6 (dose: 200.0 mg/kg/injection, schedule: Q01DX009 (ip), vehicle: Klucel (hydroxypropylcellulose) (HPC)).

Turning to `COC(=O)c1ccc(=O)c2nc3/c(=C/O)c(O)cc(=O)c3[nH]c12`, the T/C (dose: 0.15 mg/kg/injection, schedule: Q01DX009 (ip), vehicle: saline with Tween-80) was 140 % of control. Further, the survivor count (dose: 0.6 mg/kg/injection, schedule: Q01DX009 (ip), vehicle: saline with Tween-80) is reported as 5 of 6.

On to `NC(=O)C(N)C(F)c1ccccc1` (stereo not drawn), for which the survivor count under setting [8] is 5 of 6.

On to `CN1CCN(c2cc3nc[nH]c(=O)c3cc2[N+](=O)[O-])CC1`, for which the survivor count (dose: 200.0 mg/kg/injection, schedule: Q04DX003 (ip), vehicle: Klucel (hydroxypropylcellulose) (HPC)) is reported as 0 of 6.

For the compound `O=C(O)c1ccc(Oc2nc3ccccc3s2)cc1`, the survivor count (dose: 200.0 mg/kg/injection, schedule: Q04DX003 (ip), vehicle: saline with Tween-80) was 6 of 6.

On to `Cc1ccc(S(=O)(=O)CC(=O)c2ccc(Br)cc2)cc1`, for which the survivor count by setting is: under setting [7], 6 of 6; (dose: 400.0 mg/kg/injection, schedule: Q01DX009 (ip), vehicle: saline with Tween-80) 6 of 6.
